Laboratory results published in article doi:10.1101/2023.08.20.554038.

By UniProt entry, the sequences of proteins in these tests, tags left out.
UniProt P12367: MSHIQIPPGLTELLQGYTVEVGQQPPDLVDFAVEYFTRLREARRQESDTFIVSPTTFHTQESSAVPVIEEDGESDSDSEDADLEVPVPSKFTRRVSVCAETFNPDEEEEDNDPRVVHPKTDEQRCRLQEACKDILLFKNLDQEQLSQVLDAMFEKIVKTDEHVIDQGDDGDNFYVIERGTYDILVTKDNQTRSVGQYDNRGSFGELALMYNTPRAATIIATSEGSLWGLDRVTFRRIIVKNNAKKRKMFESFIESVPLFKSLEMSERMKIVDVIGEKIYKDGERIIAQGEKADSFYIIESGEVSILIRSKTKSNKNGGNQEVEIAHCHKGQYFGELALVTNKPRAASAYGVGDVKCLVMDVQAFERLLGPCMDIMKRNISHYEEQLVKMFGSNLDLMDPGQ
UniProt P24588: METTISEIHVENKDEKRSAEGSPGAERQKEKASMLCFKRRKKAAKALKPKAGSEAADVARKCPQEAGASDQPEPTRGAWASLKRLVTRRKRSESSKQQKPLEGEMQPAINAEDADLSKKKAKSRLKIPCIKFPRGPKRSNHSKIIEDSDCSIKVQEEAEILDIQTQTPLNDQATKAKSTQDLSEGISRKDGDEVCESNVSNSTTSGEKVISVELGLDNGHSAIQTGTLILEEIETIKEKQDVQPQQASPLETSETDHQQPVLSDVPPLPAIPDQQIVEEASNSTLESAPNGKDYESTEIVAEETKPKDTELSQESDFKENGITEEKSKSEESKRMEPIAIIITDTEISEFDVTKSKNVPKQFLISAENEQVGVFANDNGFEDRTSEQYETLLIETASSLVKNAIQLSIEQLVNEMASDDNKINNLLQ
UniProt Q9Y490: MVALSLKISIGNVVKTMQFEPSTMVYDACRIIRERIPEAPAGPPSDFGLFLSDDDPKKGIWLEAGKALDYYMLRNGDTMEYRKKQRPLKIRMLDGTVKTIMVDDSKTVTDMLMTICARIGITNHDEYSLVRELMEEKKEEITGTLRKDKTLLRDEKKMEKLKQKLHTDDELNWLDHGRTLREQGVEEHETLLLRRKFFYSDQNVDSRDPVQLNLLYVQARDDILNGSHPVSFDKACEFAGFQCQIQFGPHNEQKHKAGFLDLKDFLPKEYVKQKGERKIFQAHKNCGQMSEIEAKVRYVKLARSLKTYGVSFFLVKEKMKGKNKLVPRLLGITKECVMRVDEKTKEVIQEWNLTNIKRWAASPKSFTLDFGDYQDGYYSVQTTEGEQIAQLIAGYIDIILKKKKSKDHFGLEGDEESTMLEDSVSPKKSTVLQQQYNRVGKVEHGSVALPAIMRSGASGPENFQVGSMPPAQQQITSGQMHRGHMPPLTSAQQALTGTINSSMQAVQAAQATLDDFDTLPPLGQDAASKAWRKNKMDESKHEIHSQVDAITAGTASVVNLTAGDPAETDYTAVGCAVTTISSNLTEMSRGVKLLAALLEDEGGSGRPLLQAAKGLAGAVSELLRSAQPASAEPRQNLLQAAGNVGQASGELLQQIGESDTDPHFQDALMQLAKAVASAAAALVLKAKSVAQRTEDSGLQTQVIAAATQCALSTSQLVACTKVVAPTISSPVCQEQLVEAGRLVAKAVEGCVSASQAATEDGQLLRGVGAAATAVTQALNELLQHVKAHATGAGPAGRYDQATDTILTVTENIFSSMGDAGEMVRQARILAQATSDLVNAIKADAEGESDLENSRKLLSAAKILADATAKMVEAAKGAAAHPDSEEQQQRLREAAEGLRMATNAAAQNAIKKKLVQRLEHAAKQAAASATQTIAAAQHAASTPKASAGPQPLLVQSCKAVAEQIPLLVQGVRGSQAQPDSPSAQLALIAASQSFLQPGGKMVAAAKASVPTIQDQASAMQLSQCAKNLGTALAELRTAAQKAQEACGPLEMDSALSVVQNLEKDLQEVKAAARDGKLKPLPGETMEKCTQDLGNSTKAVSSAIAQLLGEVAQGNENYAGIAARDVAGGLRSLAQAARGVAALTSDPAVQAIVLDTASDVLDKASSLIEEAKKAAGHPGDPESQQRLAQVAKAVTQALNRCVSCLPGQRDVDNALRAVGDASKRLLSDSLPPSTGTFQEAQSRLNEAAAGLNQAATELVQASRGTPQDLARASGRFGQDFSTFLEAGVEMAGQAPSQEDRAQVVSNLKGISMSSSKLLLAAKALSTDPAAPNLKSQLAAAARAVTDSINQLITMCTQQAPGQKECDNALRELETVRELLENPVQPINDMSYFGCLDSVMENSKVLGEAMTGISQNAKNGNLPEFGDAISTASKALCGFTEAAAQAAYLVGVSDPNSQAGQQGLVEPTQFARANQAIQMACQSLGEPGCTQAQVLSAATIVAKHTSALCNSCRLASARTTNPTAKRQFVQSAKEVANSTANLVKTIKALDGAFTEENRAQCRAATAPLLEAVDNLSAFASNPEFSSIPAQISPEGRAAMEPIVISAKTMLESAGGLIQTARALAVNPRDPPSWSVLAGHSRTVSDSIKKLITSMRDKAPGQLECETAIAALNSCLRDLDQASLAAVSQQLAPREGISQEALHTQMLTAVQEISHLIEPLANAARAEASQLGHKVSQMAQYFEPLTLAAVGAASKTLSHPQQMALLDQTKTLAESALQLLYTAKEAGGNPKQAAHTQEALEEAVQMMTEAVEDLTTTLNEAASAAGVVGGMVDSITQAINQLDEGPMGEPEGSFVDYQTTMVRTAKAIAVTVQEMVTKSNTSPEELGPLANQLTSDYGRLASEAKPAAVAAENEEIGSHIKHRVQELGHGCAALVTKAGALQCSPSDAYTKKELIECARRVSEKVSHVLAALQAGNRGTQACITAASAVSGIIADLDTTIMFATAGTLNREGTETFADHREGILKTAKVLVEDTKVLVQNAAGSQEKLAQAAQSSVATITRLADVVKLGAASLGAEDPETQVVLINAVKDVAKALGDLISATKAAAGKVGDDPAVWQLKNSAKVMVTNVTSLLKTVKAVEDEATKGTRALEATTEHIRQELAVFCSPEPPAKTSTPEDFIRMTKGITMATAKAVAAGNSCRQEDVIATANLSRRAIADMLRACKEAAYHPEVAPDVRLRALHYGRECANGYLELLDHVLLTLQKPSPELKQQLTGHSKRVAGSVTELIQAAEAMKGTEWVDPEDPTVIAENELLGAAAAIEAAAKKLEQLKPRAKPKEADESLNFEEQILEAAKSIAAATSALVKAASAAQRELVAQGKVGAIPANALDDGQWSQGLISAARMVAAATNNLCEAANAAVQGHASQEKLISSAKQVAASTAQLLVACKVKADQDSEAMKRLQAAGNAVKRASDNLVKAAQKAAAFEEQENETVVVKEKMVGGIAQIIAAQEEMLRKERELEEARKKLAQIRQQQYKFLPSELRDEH

Biological target: V5 epitope-tagged murine PKA RIIα fused to miniTurbo biotin ligase (V5-RIIα-mTb), wild type (mouse) (UniProt P12367)
Assay: proximity labelling

Substance	binding
AKAP79 (from UniProt P24588 1-427)	binds
talin1 (from UniProt Q9Y490 1-2541)	binds

No constants are given. Whether binding was seen depends on the method and setting. Binding seen in cells or lysates may run through a third protein. Here binding means that the protein was enriched with, or labelled near, the bait; the list need not be complete.
